Among the data in doi:10.1101/2020.07.09.194399 are binding values, retold here.

Chains of the proteins cited; added tags and fusions are not shown.
UniProt Q86WV6: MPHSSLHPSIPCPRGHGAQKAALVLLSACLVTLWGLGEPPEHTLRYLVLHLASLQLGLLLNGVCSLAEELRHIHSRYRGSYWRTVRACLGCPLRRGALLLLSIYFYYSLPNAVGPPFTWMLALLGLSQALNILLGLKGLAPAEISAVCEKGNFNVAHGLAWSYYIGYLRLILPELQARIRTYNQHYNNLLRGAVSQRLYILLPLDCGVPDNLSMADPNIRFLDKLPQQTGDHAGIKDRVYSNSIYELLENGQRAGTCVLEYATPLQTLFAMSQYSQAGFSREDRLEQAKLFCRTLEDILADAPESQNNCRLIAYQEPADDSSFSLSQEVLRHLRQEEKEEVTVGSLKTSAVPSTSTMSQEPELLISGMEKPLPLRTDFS
UniProt P53621: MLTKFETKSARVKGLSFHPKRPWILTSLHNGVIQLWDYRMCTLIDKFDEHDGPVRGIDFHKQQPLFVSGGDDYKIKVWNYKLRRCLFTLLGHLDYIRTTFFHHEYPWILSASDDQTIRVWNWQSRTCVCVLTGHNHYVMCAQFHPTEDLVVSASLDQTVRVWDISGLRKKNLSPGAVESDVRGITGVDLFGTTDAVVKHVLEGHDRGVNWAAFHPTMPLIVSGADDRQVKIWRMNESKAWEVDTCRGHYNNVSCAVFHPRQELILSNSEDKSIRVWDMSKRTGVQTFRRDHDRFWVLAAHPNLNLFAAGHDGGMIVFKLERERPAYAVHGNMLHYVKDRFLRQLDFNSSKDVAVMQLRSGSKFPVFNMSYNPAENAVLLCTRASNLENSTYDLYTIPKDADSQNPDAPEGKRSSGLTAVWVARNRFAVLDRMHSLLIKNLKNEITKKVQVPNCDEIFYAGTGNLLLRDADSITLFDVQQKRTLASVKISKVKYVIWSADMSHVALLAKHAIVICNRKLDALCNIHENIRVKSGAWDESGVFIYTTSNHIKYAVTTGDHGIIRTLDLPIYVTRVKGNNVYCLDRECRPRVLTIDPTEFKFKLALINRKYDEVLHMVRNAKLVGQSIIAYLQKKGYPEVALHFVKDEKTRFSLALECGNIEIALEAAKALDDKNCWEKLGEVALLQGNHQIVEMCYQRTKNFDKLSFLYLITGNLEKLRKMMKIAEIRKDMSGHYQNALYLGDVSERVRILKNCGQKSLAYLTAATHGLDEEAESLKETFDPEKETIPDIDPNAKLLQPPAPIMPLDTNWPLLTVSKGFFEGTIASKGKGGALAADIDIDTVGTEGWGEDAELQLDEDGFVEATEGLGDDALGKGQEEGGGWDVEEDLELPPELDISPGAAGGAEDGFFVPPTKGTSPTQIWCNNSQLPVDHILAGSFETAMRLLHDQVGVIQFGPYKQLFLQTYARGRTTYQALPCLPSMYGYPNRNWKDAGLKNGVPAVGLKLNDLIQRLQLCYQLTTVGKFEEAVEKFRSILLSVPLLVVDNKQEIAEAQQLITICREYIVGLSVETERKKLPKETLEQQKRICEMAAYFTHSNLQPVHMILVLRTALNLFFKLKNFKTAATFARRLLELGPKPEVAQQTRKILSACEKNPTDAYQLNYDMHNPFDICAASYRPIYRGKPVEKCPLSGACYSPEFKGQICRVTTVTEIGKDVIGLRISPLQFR
UniProt O15260: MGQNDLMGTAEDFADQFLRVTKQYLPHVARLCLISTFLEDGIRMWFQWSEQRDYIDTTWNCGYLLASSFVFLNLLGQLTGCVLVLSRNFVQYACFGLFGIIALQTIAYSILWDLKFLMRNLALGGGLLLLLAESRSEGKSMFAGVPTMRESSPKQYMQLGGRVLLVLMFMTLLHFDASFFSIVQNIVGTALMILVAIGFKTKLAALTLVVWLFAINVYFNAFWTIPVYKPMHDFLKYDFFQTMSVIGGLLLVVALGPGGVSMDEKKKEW

This experiment addresses mCitrine (mCit)-tagged human STING (Stimulator of Interferon Genes) (human) (UniProt Q86WV6). Kind of experiment: affinity purification with mass spectrometry.

Results are given in words; binding and its absence hold for the method and conditions named. In cells and extracts the contact can be indirect. These calls come from enrichment with a bait or labelling near it, and not all partners need be listed.

Regarding “Coatomer subunit α (COPA) (from UniProt P53621 1-1224)”, the binding entry is “binds”.

Turning to “Surfeit protein 4 (SURF4) (from UniProt O15260 1-269)”, the binding result is on record as “binds”.
